Record: PubChem BioAssay AID686937 (Drosophila RNAi Screening Center, 2013)
Assay: 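Knock-downs that reduce output of a secreted reporter enzyme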 (primary screen). System: Drosophila S2 cells expressing secreted horseradish peroxidase. Knock-down reagent: long dsRNA against Drosophila genes. Duration: about 5.5 days (5 days dsRNA, then 12 h reporter induction). Conditions: reporter expression induced after 5 days of dsRNA, read 12 h later; inducer not stated. Measurement: 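After 5 days of dsRNA and 12 h of reporter induction, medium peroxidase read by chemiluminescence and scored as per-plate z-score; higher values mean more reporter released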. Scale: z-score: higher = more reporter secreted into medium.
In all, the deposit lists about 23,000 reagents; shown is a random part of those that have a named target and a result. 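Reduced-secretion tags in replicate 1 do not always agree with the z-scores; no criterion for assigning the tags was given.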 Further read-outs or replicates are left out here. Not given: the amount of reagent.

mRRF1 [DRSC10421] → z-score, replicate 1 = 0.44
CG33003 [DRSC22419] → z-score, replicate 1 = 0.02; phenotype, replicate 1 = reduced secretion
CG34210 [DRSC04579] → z-score, replicate 1 = -0.01
ChT [DRSC16296] → z-score, replicate 1 = 0.29
CG18735 [DRSC04312] → z-score, replicate 1 = -0.09
PPP4R2r [DRSC18695] → z-score, replicate 1 = 0.16
PPP4R2r [DRSC21503] → z-score, replicate 1 = -0.07
NT1 [DRSC08530] → z-score, replicate 1 = 0.45
NT1 [DRSC22895] → z-score, replicate 1 = -0.16
CG30284 [DRSC22150] → z-score, replicate 1 = -1.29
CG7044 [DRSC16180] → z-score, replicate 1 = 0.53
CG31729 [DRSC02524] → z-score, replicate 1 = 0.01
CG31729 [DRSC02946] → z-score, replicate 1 = 0.26
org-1 [DRSC18810] → z-score, replicate 1 = -2.05; phenotype, replicate 1 = reduced secretion
CG42565 [DRSC04154] → z-score, replicate 1 = 0.04
yl [DRSC20387] → z-score, replicate 1 = 0.26
klu [DRSC11357] → z-score, replicate 1 = -0.07
CG6592 [DRSC10669] → z-score, replicate 1 = 0.03
sqd [DRSC15160] → z-score, replicate 1 = -0.07
sqd [DRSC17066] → z-score, replicate 1 = 0.68
sqd [DRSC22954] → z-score, replicate 1 = -0.52
Grl36b [DRSC01627] → z-score, replicate 1 = 0.34
CG9067 [DRSC07328] → z-score, replicate 1 = 0.32
CG30275 [DRSC04163] → z-score, replicate 1 = 0.28
CG4613 [DRSC10435] → z-score, replicate 1 = 0.56
CG8155 [DRSC07084] → z-score, replicate 1 = 0.26
CG8155 [DRSC21543] → z-score, replicate 1 = 0.22

Already shown: an excerpt of the list.
CG31729 [DRSC02946] → z-score, replicate 1 = 0.26
org-1 [DRSC18810] → z-score, replicate 1 = -2.05; phenotype, replicate 1 = reduced secretion
